Among the data in publication doi:10.1101/2025.06.18.660428 are binding values, retold here.

Chains of the proteins cited; added tags and fusions are not shown. Lines headed by an entry give the natural chain unless they say otherwise; changes in a name come on top.
UniProt P12830: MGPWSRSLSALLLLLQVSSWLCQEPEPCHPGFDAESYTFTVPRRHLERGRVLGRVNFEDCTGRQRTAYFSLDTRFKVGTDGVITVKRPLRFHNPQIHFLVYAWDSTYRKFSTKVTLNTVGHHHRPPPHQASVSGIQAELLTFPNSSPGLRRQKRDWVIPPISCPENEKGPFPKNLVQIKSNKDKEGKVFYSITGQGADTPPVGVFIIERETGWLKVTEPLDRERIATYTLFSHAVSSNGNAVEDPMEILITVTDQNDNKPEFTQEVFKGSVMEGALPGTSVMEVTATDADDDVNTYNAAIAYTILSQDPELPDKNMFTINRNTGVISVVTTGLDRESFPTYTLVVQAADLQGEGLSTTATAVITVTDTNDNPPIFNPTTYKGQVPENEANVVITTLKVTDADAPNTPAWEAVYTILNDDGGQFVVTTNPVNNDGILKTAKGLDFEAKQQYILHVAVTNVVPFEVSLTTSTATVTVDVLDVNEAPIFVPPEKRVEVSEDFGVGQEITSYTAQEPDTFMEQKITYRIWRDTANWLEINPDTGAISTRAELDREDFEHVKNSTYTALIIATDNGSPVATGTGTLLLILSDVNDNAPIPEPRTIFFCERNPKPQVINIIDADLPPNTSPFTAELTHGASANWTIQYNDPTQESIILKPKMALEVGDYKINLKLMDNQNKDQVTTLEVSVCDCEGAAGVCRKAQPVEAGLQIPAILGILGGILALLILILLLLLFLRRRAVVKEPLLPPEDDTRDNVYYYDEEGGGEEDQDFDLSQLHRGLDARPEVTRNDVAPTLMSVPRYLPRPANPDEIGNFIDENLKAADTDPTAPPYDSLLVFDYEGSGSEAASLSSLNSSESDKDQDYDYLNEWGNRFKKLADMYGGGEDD
UniProt P98170: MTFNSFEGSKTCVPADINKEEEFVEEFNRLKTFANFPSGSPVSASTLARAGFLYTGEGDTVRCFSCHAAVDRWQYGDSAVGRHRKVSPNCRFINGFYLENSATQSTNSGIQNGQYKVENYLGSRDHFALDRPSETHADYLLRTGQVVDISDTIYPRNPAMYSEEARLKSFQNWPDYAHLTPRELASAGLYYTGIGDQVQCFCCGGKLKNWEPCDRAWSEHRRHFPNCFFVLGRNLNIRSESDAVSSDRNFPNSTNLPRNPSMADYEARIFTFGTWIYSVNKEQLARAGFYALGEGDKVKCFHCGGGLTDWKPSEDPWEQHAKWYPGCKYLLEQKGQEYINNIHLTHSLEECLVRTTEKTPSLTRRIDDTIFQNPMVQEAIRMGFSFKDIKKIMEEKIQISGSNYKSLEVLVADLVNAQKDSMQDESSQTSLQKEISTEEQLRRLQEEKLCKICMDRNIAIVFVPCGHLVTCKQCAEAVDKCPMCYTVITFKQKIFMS

These are yes or no findings as the source states them, for the method shown. In cells and extracts the contact can be indirect. Here binding means that the protein was enriched with, or labelled near, the bait; the list need not be complete.

The assay has as its target BioID2-tagged soluble E-cadherin (sEcad, 1-707aa) (human) (UniProt P12830). The assay can be described thus: proximity labelling.

“Endogenous XIAP (X-linked inhibitor of apoptosis protein) (from UniProt P98170 1-497)”: the binding entry is on record as “binds”.
